Record: PubChem BioAssay AID1671195 (Yale University, 2021)

Purpose: 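Knockdowns that increase or decrease uptake of fluorescent LDL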 (primary screen)
System: human Huh7 hepatoma cells
Knock-down reagent: siRNA pool against human genes, 18 nM
Time to read-out: about 2 to 2.5 days of knockdown, then 8 h LDL uptake
Conditions: DiI-labelled LDL at 30 µg/ml for 8 h, in lipoprotein-deficient serum medium
Detection: 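Fluorescent LDL signal imaged in cells, scaled to the plate median, robust z-score for each replicate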
Direction: robust z-score: higher = more LDL uptake after knockdown
Rule for the call: 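a gene counts as active if at least two replicate z-scores exceed ±2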
The whole screen tested about 22,000 reagents; this is a random part of them. Of all reagents, about 1,510 (6.9%) got an active call. 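Active includes knockdowns raising or lowering LDL uptake; positive z-scores mean more uptake, negative mean less.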 Entries without a mark were called inactive.

Against LOC400050 (retired record) the deposit lists robust z-score, replicate 1 = 0.454; robust z-score, replicate 2 = 0.0881; robust z-score, replicate 3 = 0.375.
TMEM209 (transmembrane protein 209) showed robust z-score, replicate 1 = -0.0602; robust z-score, replicate 2 = -0.517; robust z-score, replicate 3 = -0.512.
Knock-down of ZNF394 (zinc finger protein 394) resulted in: robust z-score, replicate 1 = -0.0035; robust z-score, replicate 2 = -0.436; robust z-score, replicate 3 = -0.14.
TCEA1 (transcription elongation factor A1) gave robust z-score, replicate 1 = 0.848 (active); robust z-score, replicate 2 = 2.69; robust z-score, replicate 3 = 1.92.
After knock-down of AK1 (adenylate kinase 1), the screen gave robust z-score, replicate 1 = -0.378; robust z-score, replicate 2 = -0.384; robust z-score, replicate 3 = -0.395.
Silencing of PIM2 (Pim-2 proto-oncogene, serine/threonine kinase) resulted in: robust z-score, replicate 1 = 2.87; robust z-score, replicate 2 = 1.68; robust z-score, replicate 3 = 1.36.
Knock-down of LOC389212 (retired record) gave: robust z-score, replicate 1 = 0.0552; robust z-score, replicate 2 = -0.196; robust z-score, replicate 3 = 0.0156.
Against RPL18AP16 (ribosomal protein L18a pseudogene 16), the entry reads robust z-score, replicate 1 = -1.04; robust z-score, replicate 2 = -0.978; robust z-score, replicate 3 = -1.04.
With knock-down of OR56A3 (olfactory receptor family 56 subfamily A member 3), the record shows robust z-score, replicate 1 = 0.395; robust z-score, replicate 2 = 1.13; robust z-score, replicate 3 = 0.537.
With knock-down of MIER1 (MIER1 transcriptional regulator) the results were robust z-score, replicate 1 = -0.236; robust z-score, replicate 2 = 0.049; robust z-score, replicate 3 = -0.0647.
Silencing of MRPS5 (mitochondrial ribosomal protein S5) came out at: robust z-score, replicate 1 = 0.418; robust z-score, replicate 2 = 0.441; robust z-score, replicate 3 = 0.545.
Depletion of SSR2 (signal sequence receptor subunit 2) came out at: robust z-score, replicate 1 = -0.858; robust z-score, replicate 2 = -0.471; robust z-score, replicate 3 = -0.0977.
